Data as given in doi:10.1101/2022.03.31.486303 (bioRxiv, 2022).
Results are given in words; binding and its absence hold for the method and conditions named. In cells and extracts the contact can be indirect. Some results given as binding are weak or reduced against the parent protein; the word gives no strength.

Chains of the proteins cited; added tags and fusions are not shown.
UniProt P00546: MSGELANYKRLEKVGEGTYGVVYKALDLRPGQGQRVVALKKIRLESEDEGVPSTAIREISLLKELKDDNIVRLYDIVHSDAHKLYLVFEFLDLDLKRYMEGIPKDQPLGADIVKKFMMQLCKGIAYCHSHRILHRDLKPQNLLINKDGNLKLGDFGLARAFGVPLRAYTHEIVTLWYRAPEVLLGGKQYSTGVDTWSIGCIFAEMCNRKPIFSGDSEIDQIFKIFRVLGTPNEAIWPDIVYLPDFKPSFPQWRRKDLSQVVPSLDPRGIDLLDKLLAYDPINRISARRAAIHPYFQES

T1: 1xStrep-Clb2 (budding yeast) (UniProt P24869)
T1 sequence: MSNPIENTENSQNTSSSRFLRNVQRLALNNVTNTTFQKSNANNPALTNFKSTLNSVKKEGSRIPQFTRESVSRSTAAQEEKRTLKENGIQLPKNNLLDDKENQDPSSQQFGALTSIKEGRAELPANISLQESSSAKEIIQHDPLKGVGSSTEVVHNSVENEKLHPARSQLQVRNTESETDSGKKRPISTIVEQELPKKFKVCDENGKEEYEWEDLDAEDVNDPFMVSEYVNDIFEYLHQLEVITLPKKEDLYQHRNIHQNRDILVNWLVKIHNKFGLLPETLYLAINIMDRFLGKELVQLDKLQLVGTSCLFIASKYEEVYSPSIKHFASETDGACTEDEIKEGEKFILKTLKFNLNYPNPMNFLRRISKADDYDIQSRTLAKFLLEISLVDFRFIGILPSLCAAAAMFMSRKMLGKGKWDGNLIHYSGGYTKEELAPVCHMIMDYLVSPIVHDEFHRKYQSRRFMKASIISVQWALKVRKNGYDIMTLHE


Target: T1, 1xStrep-Clb2 (budding yeast)
Test: pull-down

| Molecule | binding |
| --- | --- |
| Cdc28 (from UniProt P00546 1-298) (enzyme) | binds |
| Cks1 (protein, UniProt P20486 1-150) MYHHYHAFQGRKLTDQERARVLEFQDSIHYSPRYSDDNYEYRHVMLPKAMLKVIPSDYFNSEVGTLRILTEDEWRGLGITQSLGWEHYECHAPEPHILLFKRPLNYEAELRAATAAAQQQQQQQQQQQQQQQQHQTQSISNDMQVPPQIS | binds |
